# HELM strings list residues between dots; [ac] is acetyl, [am] amide, other brackets name non-standard units.
# Test: general procedure: Fmoc solid-phase peptide synthesis; 2-chlorotrityl chloride resin (1.6 mmol Cl-/g); HBTU/DIPEA; HATU/DIPEA for Onc112
# Conditions: conjugation step, TFA
row,Substance,conjugation yield
1,Fmoc-Arg(Pbf)Arg(Pbf)IleArg(Pbf)ProArg(Pbf)ProProTyr(tBu)Leu-C2-TPP,81%
2,PEPTIDE1{[BODIPY-FL-C3].R.R.I.R.P.R.P.P.R.L}$$$$V2.0,31%
3,Fmoc-Arg(Pbf)Arg(Pbf)IleArg(Pbf)ProArg(Pbf)ProProTyr(tBu)Leu-C10-TPP,39%

# — paper PMC10818380 (Pharmaceutics, 2024)
